{"source": "PubChem BioAssay AID493014", "about": "(National Center for Advancing Translational Sciences (NCATS), 2011)", "note": "The campaign covered roughly 340,000 compounds. About 170 (0.05%) were called active. The shares of active, inactive and inconclusive entries below differ from those in the screen. The call rests on the fitted dose curve; in most records, active means well fitted inhibition curve with a large enough effect in the signal ratio, with a control signal flat (not every such curve was filed as active); inconclusive means small, poorly fitted or top-dose-only effect, or effect the other way, or a change in a side signal; inactive means flat fitted curve, though single readings scatter; the % refers to the signal ratio. Potencies beside an inconclusive call are fits to weak or partial responses and may not hold up. Potency means the concentration at half of the fitted maximal effect.", "data": [{"assay": "qHTS Assay to Find Inhibitors of Chronic Active B-Cell Receptor Signaling;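 on activity change, negative = inhibition: plate controls were basal doxycycline-induced cells for no effect and cells given 10 µM MG132 for full effect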", "settings": "ABC-DLBCL IkBa-CBG/CBR reporter, luminescence ratio (green luciferase fused to IkBa over red control in TMD8 lymphoma cells), 4 h; activity change, negative = inhibition: at 46.1 µM (top of the series)", "outline": "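TMD8 human ABC-DLBCL cells with doxycycline-inducible IκBα–green luciferase fusion and unfused red luciferase, in 0.5% FBS medium; compounds up to 46 uM, 4 h at 37C. Green/red luminescence ratio, filter-overlap corrected, fitted to concentration-response curves.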", "values": [{"compound": "Cc1ccccc1OCCC(=O)Nc1ccc(F)c(Cl)c1", "activity change, negative = inhibition": "inactive: 0.283%"}, {"compound": "CCN1C(=NCCc2cccnc2)N[C@@H](c2ccccc2)[C@H](C(=O)OC)[C@H]1C", "activity change, negative = inhibition": "inconclusive: 10.4%"}, {"compound": "Cc1ccc(/C=C/C(=O)c2c(C)nc3ccccn23)cc1", "activity change, negative = inhibition": "inconclusive: -2.1%"}, {"compound": "COc1ccc2c(c1)c(=O)c(C(=O)c1ccccc1)cn2Cc1ccc(C)cc1", "activity change, negative = inhibition": "inconclusive: -7.33%"}, {"compound": "Cc1ccc(N(C(=O)c2snc(C(N)=O)c2N)C(CC(C)C)C(=O)NC2CCCC2)cc1", "note": "(configuration not stated)", "activity change, negative = inhibition": "inactive: -2.47%"}, {"compound": "O=C(O)c1ccc(NC2=Nc3cccc4cccc2c34)cc1", "Potency": "inconclusive: 0.562 µM [falling, partial curve, poor fit]"}, {"compound": "Cc1ccc(C)c(CN2C(=O)c3ccccc3Sc3ccc(C(=O)NCc4ccco4)cc32)c1", "activity change, negative = inhibition": "inactive: -0.416%"}, {"compound": "COc1ccc(OCC(=O)Nc2ccc3c(c2)n(C)c(=O)n3C)cc1", "activity change, negative = inhibition": "inconclusive: -0.0915%"}, {"compound": "CCc1ccc(CNC(=O)Cc2ccc(NC(=O)C3=C(C)OCCS3)cc2)cc1", "Potency": "inconclusive: 3.55 µM [falling, partial curve]"}, {"compound": "CCCC1O[C@@H]2C[C@H]3[C@@H]4CCC5=CC(=O)C=C[C@]5(C)[C@H]4[C@@H](O)C[C@]3(C)[C@]2(C(=O)CO)O1", "note": "(some centres not stated)", "activity change, negative = inhibition": "inconclusive: 3.53%"}, {"compound": "NCCC1CCCC(CCN)N1", "note": "(configuration not stated)", "activity change, negative = inhibition": "inactive: -12.4%"}, {"compound": "C[C@@H](OC(=O)c1[nH]cnc1C(=O)N1CCc2ccccc2C1)c1ccccc1", "activity change, negative = inhibition": "inconclusive: -1.49%"}, {"compound": "COc1cccc(OCC(=O)NNC(=O)c2ccc3ccccc3c2O)c1", "activity change, negative = inhibition": "inconclusive: -5.63%"}, {"compound": "O=C(Nc1ccccc1N1CCN(C(=O)c2ccc(Cl)cc2)CC1)c1cc2ccccc2o1", "activity change, negative = inhibition": "inactive: -18.3%"}, {"compound": "CSc1cccc(NC(=O)CNC(=O)C2CCCCC2)c1", "activity change, negative = inhibition": "inactive: -6.5%"}, {"compound": "O=C(NCC1COc2ccccc2O1)c1ccc(Cl)cc1", "note": "(configuration not stated)", "activity change, negative = inhibition": "inconclusive: 9.2%"}, {"compound": "Nc1c(C(=O)c2ccccc2O)cnn1-c1ccc(S(=O)(=O)N2CCOCC2)cc1[N+](=O)[O-]", "activity change, negative = inhibition": "inactive: -3.31%"}, {"compound": "NC(=O)c1c(NC(=S)Nc2ccc(F)cc2)sc2c1CCCC2", "activity change, negative = inhibition": "inconclusive: -2.95%"}, {"compound": "CC(=O)Nc1ccc(OCC(O)Cn2ccnc2)cc1", "note": "(configuration not stated)", "Potency": "inconclusive: 3.55 µM [falling, partial curve]"}, {"compound": "C/C(=N\\NC(=O)c1c(Cl)cnn1C)c1cccnc1", "Potency": "inconclusive: 35.5 µM [rising, single point]"}, {"compound": "CC1CC(C)CN(C(=S)Nc2ccc(OC(F)F)cc2)C1", "note": "(configuration not stated)", "activity change, negative = inhibition": "inconclusive: 9.04%"}, {"compound": "Cc1nc2c3ccccc3nc(SCC(=O)N3CC(C)CC(C)C3)n2n1", "note": "(configuration not stated)", "activity change, negative = inhibition": "inconclusive: 7.25%"}, {"compound": "COc1cc2c(cc1OC)C1O[C@](CCCCN3C(=O)c4ccccc4C3=O)(C2)Oc2c1c(=O)oc1ccccc21", "Potency": "inconclusive: 3.98 µM [rising, single point]"}, {"compound": "Cc1cc(C)nc(N/N=C/c2ccccc2Cl)n1", "Potency": "inconclusive: 15.8 µM [falling, partial curve]"}, {"compound": "O=C(CCCN1C(=O)/C(=C\\c2cccs2)SC1=S)Nc1cccc(C(=O)O)c1", "Potency": "inconclusive: 35.5 µM [falling, single point]"}, {"compound": "O=C(Cc1c(O)c2ccccc2oc1=O)c1ccc(C(F)(F)F)cc1", "activity change, negative = inhibition": "inactive: -3.62%"}, {"compound": "Cc1c(C(=O)c2ccccc2C(=O)O)sc2ccccc12", "activity change, negative = inhibition": "inactive: 6.8%"}, {"compound": "COc1ccc(NC(=O)Nc2cnccn2)c(OC)c1", "activity change, negative = inhibition": "inactive: 1.49%"}, {"compound": "CC1Cc2ccccc2N1C(=O)CN(C)CC(=O)Nc1ccc(F)cc1", "note": "(configuration not stated)", "activity change, negative = inhibition": "inconclusive: -10.2%"}, {"compound": "COc1cc(/C=N/NC(=O)c2cccnc2)cc(Br)c1O", "activity change, negative = inhibition": "inconclusive: -8.4%"}, {"compound": "Clc1cccc(-n2ncc3c(NCCCc4ccccc4)ncnc32)c1", "activity change, negative = inhibition": "inconclusive: 19.8%"}, {"compound": "CC(=O)c1ccc(NC(=O)CSc2nnc(C3CC3)n2C2CC2)cc1", "activity change, negative = inhibition": "inconclusive: 3.62%"}, {"compound": "CN(C)C1=NC[C@H](Cc2ccccc2)N1CCCC1CCCC1", "Potency": "inconclusive: 29.1 µM [falling, partial curve, poor fit]"}, {"compound": "Cc1ccc(C(=O)Nc2nc3ccccc3c(=O)s2)cc1", "Potency": "inconclusive: 5.62 µM [falling, single point]"}, {"compound": "CCCn1c(NC(=O)c2ccc(F)cc2)nc2ccccc21", "activity change, negative = inhibition": "inconclusive: 7.21%"}, {"compound": "COc1ccc(-c2ccnc(SCC(=O)c3ccc(Cl)cc3)n2)cc1", "activity change, negative = inhibition": "inactive: -2.59%"}, {"compound": "CCOCCCNC(=O)c1ccc(N2CCOCC2)c(NS(=O)(=O)c2ccc(OC)cc2)c1", "activity change, negative = inhibition": "inconclusive: 9.51%"}, {"compound": "CS(=O)(=O)c1sc(C#N)c2c1C(=O)CC(c1ccccc1)C2", "note": "(configuration not stated)", "Potency": "inconclusive: 31.6 µM [rising, single point]"}, {"compound": "Cc1nc(NC(=O)c2cc(-n3cnnc3)ccc2Cl)ccc1Br", "activity change, negative = inhibition": "inconclusive: 19.6%"}, {"compound": "COc1cccc(N(C(=O)c2ccco2)C(C(=O)NC2CCCC2)c2cccnc2)c1", "note": "(configuration not stated)", "activity change, negative = inhibition": "inconclusive: -4.86%"}, {"compound": "CCN(CC)c1nc(C)c2c(c1C#N)CC(C)(C)OC2", "activity change, negative = inhibition": "inconclusive: -0.675%"}, {"compound": "Cc1ccc(C(=O)Nc2cccc3ccccc23)cc1", "activity change, negative = inhibition": "inconclusive: -13%"}, {"compound": "NC(=O)[C@H]1CC2(CC(c3cccc(NC(=O)COc4ccc(Cl)cc4)c3)=NO2)CN1C(=O)c1ccccc1C(=O)c1ccccc1", "note": "(some centres not stated)", "Potency": "inconclusive: 17.8 µM [falling, partial curve]"}, {"compound": "CCCc1ccc(OCc2ccc(C(=O)NN)o2)c(OC)c1", "Potency": "inconclusive: 22.4 µM [falling, single point]"}, {"compound": "O=C(N/N=C/c1ccccc1)c1ccco1", "Potency": "inconclusive: 20 µM [falling, single point]"}, {"compound": "COc1cc(OC)nc(NC(=O)CSc2nc3ccccc3o2)n1", "activity change, negative = inhibition": "inconclusive: 12.4%"}, {"compound": "Fc1ccccc1Cn1nnc2c(-n3ccnc3)ncnc21", "activity change, negative = inhibition": "inconclusive: -3.41%"}, {"compound": "O=c1[nH]c(=O)c2nnc(N/N=C/c3ccccc3F)nc2[nH]1", "Potency": "inconclusive: 12.6 µM [falling, single point]"}, {"compound": "Cc1ccc(NC2=CC(=O)C(=O)c3ccccc32)cc1", "activity change, negative = inhibition": "inconclusive: 3.7%"}, {"compound": "CCn1ccc(C(=O)N2CCN(c3ncccn3)CC2)n1", "activity change, negative = inhibition": "inconclusive: 3.96%"}, {"compound": "O=C(CSc1ncnc2scc(-c3ccc(F)cc3)c12)c1ccc2c(c1)OCCO2", "activity change, negative = inhibition": "inconclusive: -1.22%"}, {"compound": "Cc1ccc2[nH]cc(CCCN3C(=O)c4ccccc4C3=O)c2c1", "Potency": "inconclusive: 2.06 µM [rising, partial curve, poor fit]"}, {"compound": "N/C(=N\\OC(=O)Cc1ccccc1[N+](=O)[O-])c1ccccn1", "activity change, negative = inhibition": "inconclusive: -15.6%"}, {"compound": "O=C1CCC(C(=O)N2CCSCC2)CN1Cc1cccc(C(F)(F)F)c1", "note": "(configuration not stated)", "activity change, negative = inhibition": "inactive: -0.495%"}, {"compound": "COCCCn1c(SCC(=O)NCc2ccccc2)nc2ccccc2c1=O", "activity change, negative = inhibition": "inconclusive: 15.4%"}, {"compound": "Cc1ccc(C(C)NC(=S)NC2CCCCC2)c(C)c1", "note": "(configuration not stated)", "activity change, negative = inhibition": "inactive: 0.417%"}, {"compound": "CC(C)CC(=O)Nc1ncc([N+](=O)[O-])s1", "activity change, negative = inhibition": "inconclusive: -0.525%"}, {"compound": "CCC1CCCN1Cn1cnc2c([nH]c3ccc(OC)cc32)c1=O", "note": "(configuration not stated)", "activity change, negative = inhibition": "inactive: -2.39%"}, {"compound": "CC(NC(=O)C1CCN(S(=O)(=O)c2ccc(Br)s2)CC1)c1ccccc1", "note": "(configuration not stated)", "activity change, negative = inhibition": "inconclusive: 7.48%"}, {"compound": "Cn1c(=O)c2c(nc(N3CCCCC3)n2CCCNC2=NCCCC2)n(C)c1=O", "activity change, negative = inhibition": "inactive: 3.13%"}, {"compound": "Cc1cccc2cc(CN(Cc3ccco3)C(=O)NC3CCCCC3)c(=O)[nH]c12", "activity change, negative = inhibition": "inconclusive: -1.73%"}, {"compound": "Cc1cc(C(=O)OCC(=O)Nc2c(Cl)cccc2Cl)c(C)o1", "activity change, negative = inhibition": "inconclusive: 4.3%"}, {"compound": "CC1(C)Cc2c(sc(NC(=O)c3ccc4ncsc4c3)c2C(N)=O)C(C)(C)N1", "Potency": "inconclusive: 10 µM [falling, partial curve, poor fit]"}, {"compound": "CCOC(=O)CSC1=NC(=O)/C(=C\\c2ccc(OC(C)=O)cc2)S1", "Potency": "inconclusive: 15.8 µM [falling, partial curve]"}, {"compound": "O=C1C2CC=CCC2C(=O)N1c1ccc(Cc2ccncc2)cc1", "note": "(configuration not stated)", "activity change, negative = inhibition": "inconclusive: 1.74%"}, {"compound": "COc1ccccc1-c1c(-c2ccc(O)cc2O)n[nH]c1C(F)(F)F", "Potency": "inconclusive: 35.5 µM [falling, partial curve, poor fit]"}, {"compound": "Cc1ccc(/C=C/S(=O)(=O)NCC(=O)OCC(=O)NCc2ccccc2)cc1", "activity change, negative = inhibition": "inactive: -3.07%"}, {"compound": "COc1ccc(N2CCN(C(=O)COC(=O)c3ccc(OC(F)F)cc3)CC2)cc1", "activity change, negative = inhibition": "inconclusive: 4.42%"}, {"compound": "N#Cc1cc([N+](=O)[O-])ccc1NC(=O)CSc1n[nH]c(=O)n1C1CC1", "activity change, negative = inhibition": "inconclusive: -12.1%"}, {"compound": "CSc1nc2oc3c(c2c2nncn12)CC(C)(C)SC3", "activity change, negative = inhibition": "inconclusive: 0.895%"}, {"compound": "COc1ccc(C(=O)Nc2ccc3c(c2)C(=O)N(C)C3=O)cc1OC", "activity change, negative = inhibition": "inconclusive: 0.85%"}, {"compound": "O=C(Cn1cnnn1)Nc1ccccc1Cc1ccccc1", "activity change, negative = inhibition": "inconclusive: 3.99%"}, {"compound": "O=C(Oc1ccc(Nc2ncnc3ccccc23)cc1)c1cccnc1", "activity change, negative = inhibition": "inactive: -18.7%"}, {"compound": "COc1ccc(NS(=O)(=O)c2cc(NC(=O)CC3CCCC3)ccc2N2CCOCC2)cc1", "activity change, negative = inhibition": "inconclusive: -0.634%"}, {"compound": "O=C(CSc1nnc(-c2cccnc2)n1Cc1ccco1)c1ccccc1", "activity change, negative = inhibition": "inconclusive: 0.0691%"}, {"compound": "COCc1cc(=O)[nH]c(Nc2nc3ccc(C)cc3o2)n1", "Potency": "inconclusive: 29.1 µM [cytotoxic, single point]"}, {"compound": "COCC1CCN(Cc2cn[nH]c2-c2cc(OC)c(OC)c(OC)c2)CC1", "Potency": "inconclusive: 12.6 µM [falling, single point]"}, {"compound": "CC(C)C1C(c2ccccc2)NC(c2ccccc2)CC1(O)c1ccc(F)cc1", "note": "(configuration not stated)", "activity change, negative = inhibition": "inconclusive: 25.9%"}, {"compound": "CCCC(=O)OCC(=O)Nc1ccc2[nH]c(=O)[nH]c2c1", "activity change, negative = inhibition": "inconclusive: 3.77%"}, {"compound": "COc1cccc(Cn2c(NCC(C)C)nc3c2c(=O)n(C)c(=O)n3C)c1", "activity change, negative = inhibition": "inconclusive: -4.88%"}, {"compound": "NC(=O)c1ccsc1NC(=O)COC(=O)c1nc(Cl)ccc1Cl", "activity change, negative = inhibition": "inconclusive: -24.6%"}, {"compound": "CCOC(=O)c1c(-c2ccccc2)oc2ccc(OC)cc12", "Potency": "inconclusive: 29.1 µM [rising, single point]"}]}]}
